Reference: PubChem BioAssay AID1347076 (National Center for Advancing Translational Sciences (NCATS), 2019)
In all, about 400,000 compounds went through this assay and about 13,000 (3.2%) were called active. The shares of active, inactive and inconclusive entries below differ from those in the screen. The call rests on the fitted dose curve; in most records, active means well fitted cell-killing curve with a large enough effect; inconclusive means small, poorly fitted or top-dose-only effect, or effect the other way; inactive means flat fitted curve, though single readings scatter. Where the call is inconclusive, the potency comes from a doubtful curve fit.

Assay: qHTS assay for MDR1-selective chemotherapeutics: Primary screen using the drug-selected MDR subline cells KB-V1; further: nearly all actives have a fitted effect of over 60% in size
Conditions: KB-V1 MDR cells viability, CellTiter-Glo, 72 h; activity change, negative = cytotoxicity: at 46.1 µM (top of the series)
Outline: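 Cytotoxicity toward P-gp-expressing KB-V1 cells was determined as loss of CellTiter-Glo luminescence after 72 h at 37 degrees C. Compounds were tested in quantitative HTS format across a concentration range, with curves fitted to normalized data.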
On the % scale 0 is the no-effect control and ±100 the full control effect; potency means the concentration at half of the fitted maximal effect.

SMILES | activity change, negative = cytotoxicity | Potency
COc1ccc(C(=O)c2c(N)c(C(=O)Nc3cccc(OC)c3)c3ccccn23)cc1 | inactive: 0.441% | –
COc1cccc(C(c2c(NC(=O)c3ccccc3)sc(C)c2C)N2CCN(C)CC2)c1 (stereo unspecified) | – | active: 20.6 µM
CCCC(=O)NC(c1ccc(OC)c(OC)c1)c1c(O)ccc2ccccc12 (stereo unspecified) | – | inconclusive: 25.9 µM [cytotoxic, single point]
COc1ccc(CNC(=O)c2cc3c(C)nc4ccccc4c3o2)c(OC)c1 | – | active: 11.6 µM
Cc1ccc(S(=O)(=O)N(C)CC(=O)Nc2ccc3c(c2)OCO3)cc1 | – | inconclusive: 29.1 µM [cytotoxic, single point]
C/C(CCc1ccccc1)=N\NC(=S)NCCc1ccccc1 | – | inconclusive: 16.4 µM [cytotoxic, partial curve]
CCC(C(=O)O)n1ccc2cc(S(=O)(=O)N3CCCCC3)ccc21 (stereo unspecified) | – | inconclusive: 18.4 µM [rising, single point]
Clc1ccc(-c2nc(Cc3ccccc3)no2)cc1 | – | inconclusive: 5.8 µM [rising, partial curve, poor fit]
CN(C)CCCNC(=S)Nc1ccc(Br)cc1 | inactive: 11.5% | –
CCC1CCCCN1S(=O)(=O)c1cc2c3c(c1)CC(=O)N3CCC2 (stereo unspecified) | inactive: 2.17% | –
CC(=O)Nc1cc(-c2ccccc2)cn2c(-c3cccc(C(C)=O)c3)cnc12 | inactive: -1.45% | –
c1ccc(Cn2ncc3c(N4CCN(c5ccccc5)CC4)ncnc32)cc1 | – | inconclusive: 8.2 µM [cytotoxic, partial curve]
COc1ccccc1Nc1nc2ccccc2[nH]1 | – | inconclusive: 20.6 µM [cytotoxic, single point]
O=C(NCCc1csc2nc(-c3ccccc3F)nn12)C(=O)Nc1cc(F)ccc1F | inactive: -1.38% | –
CC(=O)Nc1ccc(S(=O)(=O)N(C)Cc2ccccc2)cc1 | – | inconclusive: 20.6 µM [rising, partial curve, poor fit]
O=C(NCCCN1CCN(c2cccc(Cl)c2)CC1)c1cnn(-c2ccc(F)cc2)c1-n1cccc1 | – | inconclusive: 16.4 µM [cytotoxic, partial curve, poor fit]
O=S(=O)(Nc1cc(Sc2cccc3cccnc23)c(O)c2ccccc12)c1ccc(F)cc1 | – | inconclusive: 5.8 µM [cytotoxic, full curve, poor fit]
CCNc1ccc(/C=C2\C=Cc3ccccc32)cc1 | inactive: -14.5% | –
CN(C(=S)Oc1ccc(C(=O)Nc2ccccc2)cc1)c1ccccc1 | – | active: 2.91 µM
O=C1C(Cl)=C(N2CCOCC2)C(=O)N1CCc1ccccc1 | – | active: 14.6 µM
COc1ccc(CNC(=O)c2cnn3c(C)c(Cc4c(F)cccc4Cl)c(C)nc23)cc1 | inactive: -13.5% | –
CCOc1ccc(OCc2cccc(C(=O)N3CCCCCC3)c2)cc1 | – | inconclusive: 13 µM [cytotoxic, partial curve]
COc1ccc(N(C(=O)c2ccc(C(C)(C)C)cc2)S(=O)(=O)c2ccc(Cl)cc2)cc1 | – | inconclusive: 18.4 µM [cytotoxic, single point]
O=C(CN1CCC(NC(=O)c2ccc(F)cc2)CC1)NCc1ccccc1F | – | active: 11.6 µM

Part of the list above, in CSV form.
SMILES,"activity change, negative = cytotoxicity",Potency
CCCC(=O)NC(c1ccc(OC)c(OC)c1)c1c(O)ccc2ccccc12 (stereo unspecified),–,"inconclusive: 25.9 µM [cytotoxic, single point]"
COc1ccc(CNC(=O)c2cc3c(C)nc4ccccc4c3o2)c(OC)c1,–,active: 11.6 µM
Cc1ccc(S(=O)(=O)N(C)CC(=O)Nc2ccc3c(c2)OCO3)cc1,–,"inconclusive: 29.1 µM [cytotoxic, single point]"
C/C(CCc1ccccc1)=N\NC(=S)NCCc1ccccc1,–,"inconclusive: 16.4 µM [cytotoxic, partial curve]"
CCC(C(=O)O)n1ccc2cc(S(=O)(=O)N3CCCCC3)ccc21 (stereo unspecified),–,"inconclusive: 18.4 µM [rising, single point]"
Clc1ccc(-c2nc(Cc3ccccc3)no2)cc1,–,"inconclusive: 5.8 µM [rising, partial curve, poor fit]"
CN(C)CCCNC(=S)Nc1ccc(Br)cc1,inactive: 11.5%,–
CCC1CCCCN1S(=O)(=O)c1cc2c3c(c1)CC(=O)N3CCC2 (stereo unspecified),inactive: 2.17%,–
CC(=O)Nc1cc(-c2ccccc2)cn2c(-c3cccc(C(C)=O)c3)cnc12,inactive: -1.45%,–
c1ccc(Cn2ncc3c(N4CCN(c5ccccc5)CC4)ncnc32)cc1,–,"inconclusive: 8.2 µM [cytotoxic, partial curve]"
COc1ccccc1Nc1nc2ccccc2[nH]1,–,"inconclusive: 20.6 µM [cytotoxic, single point]"
O=C(NCCc1csc2nc(-c3ccccc3F)nn12)C(=O)Nc1cc(F)ccc1F,inactive: -1.38%,–
CC(=O)Nc1ccc(S(=O)(=O)N(C)Cc2ccccc2)cc1,–,"inconclusive: 20.6 µM [rising, partial curve, poor fit]"
O=C(NCCCN1CCN(c2cccc(Cl)c2)CC1)c1cnn(-c2ccc(F)cc2)c1-n1cccc1,–,"inconclusive: 16.4 µM [cytotoxic, partial curve, poor fit]"
O=S(=O)(Nc1cc(Sc2cccc3cccnc23)c(O)c2ccccc12)c1ccc(F)cc1,–,"inconclusive: 5.8 µM [cytotoxic, full curve, poor fit]"
CCNc1ccc(/C=C2\C=Cc3ccccc32)cc1,inactive: -14.5%,–
CN(C(=S)Oc1ccc(C(=O)Nc2ccccc2)cc1)c1ccccc1,–,active: 2.91 µM
O=C1C(Cl)=C(N2CCOCC2)C(=O)N1CCc1ccccc1,–,active: 14.6 µM
COc1ccc(CNC(=O)c2cnn3c(C)c(Cc4c(F)cccc4Cl)c(C)nc23)cc1,inactive: -13.5%,–
CCOc1ccc(OCc2cccc(C(=O)N3CCCCCC3)c2)cc1,–,"inconclusive: 13 µM [cytotoxic, partial curve]"
COc1ccc(N(C(=O)c2ccc(C(C)(C)C)cc2)S(=O)(=O)c2ccc(Cl)cc2)cc1,–,"inconclusive: 18.4 µM [cytotoxic, single point]"

The listing continues.

SMILES | activity change, negative = cytotoxicity | Potency
CC1CCCN(C(=O)CCc2nnc(-c3ccc4c(c3)OCO4)o2)C1 (stereo unspecified) | – | inconclusive: 23.1 µM [cytotoxic, single point]
CSCCC(NS(=O)(=O)c1ccccc1F)C(=O)Nc1cccc(C)n1 (stereo unspecified) | – | inconclusive: 18.4 µM [cytotoxic, single point]
CCN1C(=O)c2ccccc2Sc2ccc(NC(=O)Nc3cccc([N+](=O)[O-])c3C)cc21 | inactive: 19.6% | –
COc1c(/C=N/Nc2ccc(C(=O)O)cc2)c(CCN(C)C(C)=O)cc2c1OCO2 | inactive: -2.29% | –
O=C(NN1CCOCC1)c1cc(-c2cccs2)nc2ccccc12 | inactive: -16.9% | –
Cc1cccc(N2CCN(C(=O)c3c(C)nn(Cc4ccccc4Cl)c3C)CC2)c1C | – | inconclusive: 18.4 µM [cytotoxic, single point]
COc1ccc(C2c3c(n(C)c4ccccc34)C(=O)N2CC(=O)Nc2cccc(Cl)c2C)cc1 (stereo unspecified) | – | inconclusive: 29.1 µM [rising, partial curve, poor fit]
CC(Oc1ccc(Cl)cc1Cl)c1ccnc2nc(N3CCOCC3)nn12 (stereo unspecified) | – | inconclusive: 20.6 µM [cytotoxic, single point]
COC(=O)c1[nH]c2cc(OC)c(OC)cc2c1/C=N/Nc1ccccc1 | – | inconclusive: 25.9 µM [cytotoxic, single point]
COc1ccc(CNc2nc3ccccc3n2C)c(OC)c1 | – | inconclusive: 8.2 µM [cytotoxic, partial curve]
O=C(CS(=O)(=O)c1ccccc1)Nc1nc(-c2ccccc2)cs1 | inactive: -2.07% | –
COc1ccc(-c2nc(N)nc(C)c2Oc2ccccc2Br)c(O)c1 | – | inconclusive: 18.4 µM [cytotoxic, single point]
O=C(NCc1ccccn1)C1CCCN(S(=O)(=O)c2cc(Cl)ccc2Cl)C1 (stereo unspecified) | – | active: 0.731 µM
CCN(C(=O)CSc1cc(C)c2ccc(OC)cc2n1)C1CCS(=O)(=O)C1 (stereo unspecified) | inactive: -2.66% | –
CC(=O)Nc1cccc(/C(C)=N/NC(=S)NC(C)C)c1 | – | inconclusive: 20.6 µM [cytotoxic, single point]
O=C1c2ccccc2C(c2nnnn2-c2ccc3c(c2)OCCO3)N1CCCN1CCOCC1 (stereo unspecified) | – | inconclusive: 29.1 µM [rising, single point]
COc1ccc(N(CC(=O)NC2CC3CCC2C3)S(=O)(=O)c2ccc(C)cc2)cc1Cl (stereo unspecified) | – | inconclusive: 7.31 µM [cytotoxic, partial curve, poor fit]
COc1ccc([N+](=O)[O-])cc1NC(=O)CSc1nncn1-c1ccccc1 | – | inconclusive: 16.4 µM [cytotoxic, single point]
S=C(NC1CCCC1)N1CCN(c2ccccn2)CC1 | – | active: 20.6 µM
CCOC(=O)c1c(NC(=O)CSc2nc3cccnc3n2C)sc(C(C)=O)c1C | – | inconclusive: 29.1 µM [cytotoxic, partial curve, poor fit]
CC(C)(C)NC(=O)C(c1ccnc2ccccc12)n1c(=O)c(-c2cc3ccccc3[nH]2)nc2ccccc21 (stereo unspecified) | – | inconclusive: 23.1 µM [cytotoxic, single point]
O=C(NC1CCC(O)CC1)c1ccc(-c2ccc([N+](=O)[O-])cc2)o1 (stereo unspecified) | inactive: -26.4% | –
CCOC(=O)c1c(NC(=O)C2c3ccccc3Oc3ccccc32)sc(C(=O)N(CC)CC)c1C | – | inconclusive: 29.1 µM [cytotoxic, single point]
C=CCNC(=S)N/N=C/c1ccc(-c2ccc(OC)cc2)o1 | – | active: 7.31 µM

SMILES | activity change, negative = cytotoxicity | Potency
O=C(NCCCN1CCOCC1)c1cnn2c(-c3ccccc3)cc(-c3ccccc3)nc12 | – | inconclusive: 9.2 µM [cytotoxic, partial curve]
CCOc1ccccc1C(=O)NC(C(=O)NCc1ccccc1OC)C(C)C (stereo unspecified) | – | inconclusive: 10.3 µM [cytotoxic, partial curve, poor fit]
O=C(CNC(=O)c1ccncc1)N/N=C/c1ccc(O)cc1O | inactive: 1.88% | –
CCn1ccc(C(=O)Nc2ccc3c(c2)CCC3)n1 | inactive: -16.9% | –
Cc1ccc(NC(=O)CCN2CCN(C/C=C/c3ccccc3)CC2)cc1C | – | active: 3.26 µM
COc1ccc(CNC(=O)COC(=O)c2ccco2)cc1 | inactive: -6.77% | –
CCOc1cc(C(=O)Nc2ccc3c(c2)n(C)c(=O)c(=O)n3C)cc(OCC)c1OCC | inactive: 2.7% | –
O=C(COC(=O)c1ccccc1Br)NCC1CCCO1 (stereo unspecified) | – | inconclusive: 25.9 µM [rising, partial curve, poor fit]
CCCCNC(=O)C1CC(=O)N(CCc2ccc(C)cc2)C1 (stereo unspecified) | inactive: 14% | –
CCO[C@@H]1OC(C(=O)Nc2ccccc2)=C[C@H](C)[C@H]1CCCO | – | inconclusive: 29.1 µM [cytotoxic, single point]
CCN1CCN(CCCN(Cc2ccco2)C(=S)Nc2ccc(Cl)c(C)c2)CC1 | – | inconclusive: 2.59 µM [cytotoxic, full curve]
CC1(C)CC(=O)C2=C(C1)NC(Nc1nc3ccccc3o1)=NC21CCCCC1 | – | inconclusive: 9.2 µM [cytotoxic, partial curve, poor fit]
CC1(C2CC2)NC(=O)N(CC(=O)N2CCN(c3ccccc3F)CC2)C1=O (stereo unspecified) | inactive: -20.2% | –
O=C1C(=O)c2ccccc2C(O)=C1c1cccc([N+](=O)[O-])c1 | – | inconclusive: 29.1 µM [cytotoxic, single point]
CCOC(=O)C1=CN(Cc2ccco2)S(=O)(=O)N(C)C1c1cccc(OC)c1 (stereo unspecified) | inactive: -6.96% | –
CC(C)(C)c1ccc(C2CC2C(=O)N/N=C\c2cc3ccccc3nc2Cl)cc1 (stereo unspecified) | – | active: 10.3 µM
CCOC(=O)N1CCc2c(sc(N)c2C#N)C1 | inconclusive: -33.7% [cytotoxic] | –
N#CCC(=O)Nc1ccc(C(=O)OCc2ccccc2Oc2ccccc2)cc1 | – | inconclusive: 16.4 µM [cytotoxic, single point]
COc1ccc(-c2csc(NC(=O)C3=NN(c4ccccc4)C(=O)CC3)n2)cc1 | – | inconclusive: 29.1 µM [cytotoxic, single point]
COC(=O)c1sc2cccc(F)c2c1S(=O)(=O)N1CCN(c2cccc(C)c2)C(C)C1 (stereo unspecified) | inconclusive: -18.5% | –
CCOc1ncccc1C(=O)Nc1ccc(C)c(S(=O)(=O)N2CCCCCC2)c1 | – | inconclusive: 32.6 µM [cytotoxic, partial curve, poor fit]
Cc1nc2ccc(S(=O)(=O)N(CC(=O)Nc3ccc(F)cc3)Cc3ccccc3)cc2s1 | inactive: 6.91% | –
Cc1ccc(-c2cnn(-c3cccc([N+](=O)[O-])c3)c2N)cc1 | – | inconclusive: 20.6 µM [cytotoxic, single point]
